Some of these results come from one statement about several compounds together.
Tests used:
5-lipoxygenase = biological target: T1, 5-lipoxygenase (Rattus norvegicus, UniProt P12527); assay: 5-Lipoxygenase, 5-LO, inhibition by comparison of LTB4 inhibition and Ca2+-induced degranulation inhibition; assay type: cell-based; conditions: difference between LTB4 inhibition and Ca2+-induced degranulation inhibition 50% or higher at 10 μM
T1 construct: RBL-2H3 cells have a potent 5-lipoxygenase activity; endogenous in cells; host or cells: RBL-2H3
T1 sequence (P12527 1-673): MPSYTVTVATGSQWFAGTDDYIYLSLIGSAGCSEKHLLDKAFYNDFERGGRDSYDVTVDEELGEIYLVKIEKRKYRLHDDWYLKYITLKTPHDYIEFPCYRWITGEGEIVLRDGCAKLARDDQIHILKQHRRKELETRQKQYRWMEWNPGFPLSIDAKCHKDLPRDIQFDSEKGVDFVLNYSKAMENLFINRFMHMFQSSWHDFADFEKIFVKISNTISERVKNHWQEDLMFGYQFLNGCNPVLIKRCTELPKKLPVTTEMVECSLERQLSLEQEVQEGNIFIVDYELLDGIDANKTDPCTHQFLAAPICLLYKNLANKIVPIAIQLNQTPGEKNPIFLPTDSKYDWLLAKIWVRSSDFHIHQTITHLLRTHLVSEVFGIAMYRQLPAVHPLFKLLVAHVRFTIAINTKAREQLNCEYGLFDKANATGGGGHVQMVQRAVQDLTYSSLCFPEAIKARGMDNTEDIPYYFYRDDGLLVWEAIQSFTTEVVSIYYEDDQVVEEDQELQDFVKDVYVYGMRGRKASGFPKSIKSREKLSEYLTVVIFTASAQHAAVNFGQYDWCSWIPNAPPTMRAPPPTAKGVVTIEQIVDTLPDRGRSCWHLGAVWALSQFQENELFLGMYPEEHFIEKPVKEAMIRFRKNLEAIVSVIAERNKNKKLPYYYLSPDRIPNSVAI

[1] = tested on: leukotriene B4 production; assay: Leukotriene B4 (LTB4) inhibition assay in A23187 stimulated RBL-2H3 cells; assay type: cell-based, rat; conditions: 10 μM
RBL-2H3 cell line [2] = assay: IgE-induced RBL-2H3 mast cell degranulation (Fcε receptor type I); assay type: cell-based, rat; conditions: 10 μM concentration; RBL-2H3 cells
Description: RBL-2H3 cell line of rat basophilic leukaemia (ATCC) was used for the investigation of inhibition of degranulation induced by the activation of Fcε receptor type I or calcium ionophors. RBL-2H3 cell line was cultivated in DMEM medium (Invitrogen Cat. No. 31966-021) with 10% of phoetal calf serum (Invitrogen Corporation) at 37° C., 5% CO2, 90% relative humidity. Cells were seeded in the same medium into 24-well plates, 50000 per well, and left to reach 80-90% of confluence.
Dilutions of compounds were prepared in DMEM medium without phenol red (Invitrogen Corporation) in concentrations from 200 μM to 1 μM. The medium was removed from the cells and the diluted of compounds were added to the wells with the exception of the positive and the negative control where pure DMEM medium was added. Subsequently,
1. for the IgE-induced degranulation by Fcs receptor type I, a solution of SPE-1 (dinitrophenyl specific IgE) antibodies (Sigma) and dinitrophenylalbumin (Sigma), both in a final concentration of 0.5 μg/mL,
In the case of the negative control wells, pure DMEM medium was added. The cells were incubated for one hour at 37° C., 5% CO2, and 90% relative humidity. Each dilution as well as the positive and the negative controls were performed in triplicate. The supernatant (50 μL) was transferred in duplicate to a 96-well plate. Thereto 100 μL of 50 mM sodium citrate buffer with 1 mg/mL para-nitrophenyl-N-acetyl-β-D-glucosaminide (Calbiochem) were added and it was incubated for 1 hour at 37° C. The reaction was stopped with 100 μL of a saturated sodium carbonate solution. The absorbance was measured at 405 μm. The percentage of inhibition was expressed by the formula:
% inhibition=(1−(OD405 sample−OD405negative control)/(OD405positive control−OD405negative control))×100.

RBL-2H3 cell line [3] = assay: Ca2+-induced RBL-2H3 mast cell degranulation (calcium ionophore A23187); assay type: cell-based, rat; conditions: 10 μM concentration, RBL-2H3 cells

| Structure (SMILES) | 5-LO inhibitor by criterion (5-lipoxygenase) | inhibition of LTB4 production [1] | inhibition of IgE-induced degranulation by Fcs receptor type I (RBL-2H3 cell line [2]) | inhibition of Ca2+-induced degranulation by means of a calcium ionophore (RBL-2H3 cell line [3]) |
| --- | --- | --- | --- | --- |
| CC(=O)C(c1c(O)c2cccc(C(C)C)c2oc1=O)c1c(O)c2cccc(C(C)C)c2oc1=O [Example 19] | considered as 5-LO inhibitors | significant inhibition | significant inhibitory activity | – |
| CC(C)c1cccc2c(O)c(C(CO)c3c(O)c4cccc(C(C)C)c4oc3=O)c(=O)oc12 [Example 30] | considered as 5-LO inhibitors | significant inhibition | significant inhibitory activity | – |
| COC(=O)C(c1c(O)c2cc(C)c(C)cc2oc1=O)c1c(O)c2cc(C)c(C)cc2oc1=O [Example 44] | considered as 5-LO inhibitors | significant inhibition | significant inhibitory activity | – |
| COC(=O)C(c1c(O)c2cc(Cl)c(C)cc2oc1=O)c1c(O)c2cc(Cl)c(C)cc2oc1=O [Example 45] | considered as 5-LO inhibitors | significant inhibition | significant inhibitory activity | – |
| CCc1ccc2oc(=O)c(C(C(=O)OC)c3c(O)c4cc(CC)ccc4oc3=O)c(O)c2c1 [Example 46] | considered as 5-LO inhibitors | significant inhibition | significant inhibitory activity | – |
| CC(C)c1cccc2c(O)c(C(C(=O)OCCO)c3c(O)c4cccc(C(C)C)c4oc3=O)c(=O)oc12 [Example 50] | considered as 5-LO inhibitors | significant inhibition | significant inhibitory activity | – |
| COc1ccccc1C(c1c(O)c2ccccc2oc1=O)c1c(O)c2ccccc2oc1=O [Example 61] | considered as 5-LO inhibitors | significant inhibition | significant inhibitory activity | – |
| O=c1oc2ccccc2c(O)c1C(c1ccc(Cl)cc1)c1c(O)c2ccccc2oc1=O [Example 83] | considered as 5-LO inhibitors | significant inhibition | significant inhibitory activity | – |
| Cc1ccc(C(c2c(O)c3ccccc3oc2=O)c2c(O)c3ccccc3oc2=O)cc1 [Example 86] | considered as 5-LO inhibitors | significant inhibition | significant inhibitory activity | – |
| Cc1ccc2oc(=O)c(C(c3cnc4ccccc4c3)c3c(O)c4cc(C)ccc4oc3=O)c(O)c2c1 [Example 143] | considered as 5-LO inhibitors | significant inhibition | significant inhibitory activity | – |
| Cc1ccc2oc(=O)c(C(c3ccncc3)c3c(O)c4cc(C)ccc4oc3=O)c(O)c2c1 [Example 145] | considered as 5-LO inhibitors | significant inhibition | significant inhibitory activity | – |
| Cc1ccc2oc(=O)c(C(c3ccc(-c4cccc(C(F)(F)F)c4)o3)c3c(O)c4cc(C)ccc4oc3=O)c(O)c2c1 [Example 150] | considered as 5-LO inhibitors | significant inhibition | significant inhibitory activity | – |
| O=c1oc2cc(Cl)ccc2c(O)c1C(c1ccccc1)c1c(O)c2ccc(Cl)cc2oc1=O [Example 348] | – | significant inhibition | significant inhibitory activity | significant inhibitory activity |
| O=c1oc2ccccc2c(O)c1C(c1ccc2c(c1)OCO2)c1c(O)c2ccccc2oc1=O [Example 349] | considered as 5-LO inhibitors | significant inhibition | significant inhibitory activity | – |
| COc1ccc(C(c2c(O)c3ccccc3oc2=O)c2c(O)c3ccccc3oc2=O)cc1 [Example 350] | considered as 5-LO inhibitors | significant inhibition | significant inhibitory activity | – |
| O=c1oc2ccccc2c(O)c1C(c1cnc2ccccc2c1)c1c(O)c2ccccc2oc1=O [Example 351] | considered as 5-LO inhibitors | significant inhibition | significant inhibitory activity | – |
